Reference: patent publication US20220395522A1, “Methods of Use of Glucosamine for Increasing Nitrogen Retention” (TSI Bioproducts (Xuzhou) Co., Ltd., priority 2021, published 2022)

Experiment: Self-reported food intake and physical activity logs in cross-over study
Type: in vivo, human
Conditions: GLU condition, Post 21 days, 3 x 1,000 mg/day oral; mean ± SD

`Cl.N[C@H]1C(O)O[C@H](CO)[C@@H](O)[C@@H]1O` (some centres unmarked) [GLU, glucosamine hydrochloride] gave a Carbohydrate intake of 189 ± 36 g/day and a Protein intake of 123 ± 46 g/day.
